PMC10501989
No constants are given. Whether binding was seen depends on the method and setting. In cells and extracts the contact can be indirect. Some entries that bind do so weakly or less than the wild type. Each block holds one molecule with its values, some of them ahead of it.

By UniProt entry, the sequences of proteins in these tests, tags left out.
UniProt Q3TKT4: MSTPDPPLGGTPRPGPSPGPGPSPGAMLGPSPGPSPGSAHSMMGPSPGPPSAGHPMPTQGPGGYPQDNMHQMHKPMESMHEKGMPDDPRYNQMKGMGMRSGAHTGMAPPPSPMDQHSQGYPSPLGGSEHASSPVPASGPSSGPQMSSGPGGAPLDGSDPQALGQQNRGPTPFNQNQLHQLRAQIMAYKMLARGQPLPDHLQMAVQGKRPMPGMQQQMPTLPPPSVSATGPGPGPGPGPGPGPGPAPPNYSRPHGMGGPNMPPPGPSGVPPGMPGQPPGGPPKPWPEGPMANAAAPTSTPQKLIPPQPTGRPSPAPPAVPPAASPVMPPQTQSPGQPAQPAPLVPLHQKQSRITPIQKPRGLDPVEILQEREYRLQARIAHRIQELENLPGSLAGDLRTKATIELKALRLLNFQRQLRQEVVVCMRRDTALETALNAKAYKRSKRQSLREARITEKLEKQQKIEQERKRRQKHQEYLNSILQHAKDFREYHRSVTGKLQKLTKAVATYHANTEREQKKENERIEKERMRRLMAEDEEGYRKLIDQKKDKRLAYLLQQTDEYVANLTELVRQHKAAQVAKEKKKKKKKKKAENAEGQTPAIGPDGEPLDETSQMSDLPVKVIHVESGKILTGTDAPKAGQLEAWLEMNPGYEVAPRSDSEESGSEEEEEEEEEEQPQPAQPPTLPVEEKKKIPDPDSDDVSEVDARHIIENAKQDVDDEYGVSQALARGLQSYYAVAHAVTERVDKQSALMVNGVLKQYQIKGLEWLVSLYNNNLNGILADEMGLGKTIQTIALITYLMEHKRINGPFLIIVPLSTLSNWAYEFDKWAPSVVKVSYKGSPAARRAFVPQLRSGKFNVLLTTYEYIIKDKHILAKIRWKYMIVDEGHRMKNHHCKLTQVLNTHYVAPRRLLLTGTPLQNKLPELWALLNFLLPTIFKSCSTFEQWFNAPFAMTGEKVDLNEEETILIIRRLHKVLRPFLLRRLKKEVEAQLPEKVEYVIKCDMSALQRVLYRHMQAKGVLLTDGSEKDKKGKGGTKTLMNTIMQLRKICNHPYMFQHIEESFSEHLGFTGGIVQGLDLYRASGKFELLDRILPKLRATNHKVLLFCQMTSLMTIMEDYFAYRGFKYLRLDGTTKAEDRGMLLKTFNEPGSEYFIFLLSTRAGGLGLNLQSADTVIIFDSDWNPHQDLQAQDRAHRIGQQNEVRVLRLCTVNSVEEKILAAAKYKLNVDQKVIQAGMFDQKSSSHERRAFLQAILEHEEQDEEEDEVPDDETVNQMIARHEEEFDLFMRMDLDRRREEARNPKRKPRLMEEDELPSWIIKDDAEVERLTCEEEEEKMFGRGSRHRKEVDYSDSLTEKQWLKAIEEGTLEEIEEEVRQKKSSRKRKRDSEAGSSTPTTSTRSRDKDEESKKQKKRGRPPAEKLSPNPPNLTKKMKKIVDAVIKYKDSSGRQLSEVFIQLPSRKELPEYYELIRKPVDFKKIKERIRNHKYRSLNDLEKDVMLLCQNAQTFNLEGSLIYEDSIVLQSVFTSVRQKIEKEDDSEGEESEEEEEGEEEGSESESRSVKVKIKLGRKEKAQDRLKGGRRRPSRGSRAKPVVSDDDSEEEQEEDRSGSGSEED
UniProt Q6PDQ2: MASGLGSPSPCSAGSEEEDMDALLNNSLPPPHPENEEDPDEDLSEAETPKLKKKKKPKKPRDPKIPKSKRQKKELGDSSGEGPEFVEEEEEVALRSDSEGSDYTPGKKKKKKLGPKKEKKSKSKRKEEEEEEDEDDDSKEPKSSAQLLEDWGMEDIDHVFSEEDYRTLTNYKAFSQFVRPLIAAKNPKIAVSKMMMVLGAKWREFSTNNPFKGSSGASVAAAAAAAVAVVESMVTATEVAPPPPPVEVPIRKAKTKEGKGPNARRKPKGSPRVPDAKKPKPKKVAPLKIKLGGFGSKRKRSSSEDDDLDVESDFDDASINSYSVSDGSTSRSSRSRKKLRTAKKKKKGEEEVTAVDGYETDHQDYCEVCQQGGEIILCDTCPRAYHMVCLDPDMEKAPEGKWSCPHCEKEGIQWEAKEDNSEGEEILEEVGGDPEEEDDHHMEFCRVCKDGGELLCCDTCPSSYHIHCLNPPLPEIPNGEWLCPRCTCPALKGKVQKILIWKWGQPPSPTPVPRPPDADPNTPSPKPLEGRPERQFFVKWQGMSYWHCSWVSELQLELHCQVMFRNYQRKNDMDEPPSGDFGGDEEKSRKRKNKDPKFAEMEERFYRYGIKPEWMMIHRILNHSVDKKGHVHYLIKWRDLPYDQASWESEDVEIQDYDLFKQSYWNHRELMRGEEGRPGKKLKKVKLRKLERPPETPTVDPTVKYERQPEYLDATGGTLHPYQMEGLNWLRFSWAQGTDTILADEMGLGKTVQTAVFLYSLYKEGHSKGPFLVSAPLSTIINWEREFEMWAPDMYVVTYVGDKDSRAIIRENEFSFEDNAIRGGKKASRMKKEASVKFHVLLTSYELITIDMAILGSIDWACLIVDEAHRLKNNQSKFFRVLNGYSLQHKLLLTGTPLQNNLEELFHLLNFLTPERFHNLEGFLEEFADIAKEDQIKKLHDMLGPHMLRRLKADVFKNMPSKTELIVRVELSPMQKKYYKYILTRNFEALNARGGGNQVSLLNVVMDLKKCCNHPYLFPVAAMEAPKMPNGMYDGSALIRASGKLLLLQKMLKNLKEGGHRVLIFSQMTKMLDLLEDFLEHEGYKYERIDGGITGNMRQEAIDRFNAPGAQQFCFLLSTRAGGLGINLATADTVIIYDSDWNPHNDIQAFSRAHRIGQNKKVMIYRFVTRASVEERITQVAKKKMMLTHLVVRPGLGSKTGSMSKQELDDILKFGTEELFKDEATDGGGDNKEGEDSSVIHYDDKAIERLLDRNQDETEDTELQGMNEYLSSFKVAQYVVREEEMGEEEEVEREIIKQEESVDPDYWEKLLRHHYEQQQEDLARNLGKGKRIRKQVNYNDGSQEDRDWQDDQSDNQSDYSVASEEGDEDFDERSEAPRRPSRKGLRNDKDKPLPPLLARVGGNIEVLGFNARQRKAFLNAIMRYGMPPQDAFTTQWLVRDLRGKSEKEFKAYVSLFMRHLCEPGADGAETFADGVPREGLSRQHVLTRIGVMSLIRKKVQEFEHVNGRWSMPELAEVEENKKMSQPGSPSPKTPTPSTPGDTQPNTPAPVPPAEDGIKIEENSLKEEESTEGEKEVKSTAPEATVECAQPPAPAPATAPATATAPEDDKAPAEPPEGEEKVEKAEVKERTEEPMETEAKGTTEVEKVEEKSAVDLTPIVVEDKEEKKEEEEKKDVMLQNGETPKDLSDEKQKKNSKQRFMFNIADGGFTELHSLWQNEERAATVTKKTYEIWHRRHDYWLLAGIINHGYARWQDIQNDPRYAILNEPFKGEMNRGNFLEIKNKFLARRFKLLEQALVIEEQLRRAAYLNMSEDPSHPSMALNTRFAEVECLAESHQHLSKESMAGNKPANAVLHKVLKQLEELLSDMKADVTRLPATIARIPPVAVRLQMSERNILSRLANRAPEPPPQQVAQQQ

Key:
Assay in all cases: co-IP; Th2 cell nuclear lysate (50 mM Tris pH 8.0, 1 mM EDTA, 150 mM NaCl, 1% NP40, 5% glycerol); antibody to the endogenous bait (anti-ADNP, anti-BRG1 or anti-BATF) overnight at 4 °C, protein A/G Dynabeads, immunoblot
[1] = target: T1, BATF (mouse (endogenous in Th2 cells)) (UniProt O35284)
T1 sequence: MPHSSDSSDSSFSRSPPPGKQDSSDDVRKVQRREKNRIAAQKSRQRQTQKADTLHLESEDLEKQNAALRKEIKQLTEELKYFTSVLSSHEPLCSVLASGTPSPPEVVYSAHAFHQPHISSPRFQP

[2] = target: T2, activity-dependent neuroprotector homeobox protein (ADNP) (mouse (endogenous in Th2 cells)) (UniProt Q9Z103)
T2 sequence: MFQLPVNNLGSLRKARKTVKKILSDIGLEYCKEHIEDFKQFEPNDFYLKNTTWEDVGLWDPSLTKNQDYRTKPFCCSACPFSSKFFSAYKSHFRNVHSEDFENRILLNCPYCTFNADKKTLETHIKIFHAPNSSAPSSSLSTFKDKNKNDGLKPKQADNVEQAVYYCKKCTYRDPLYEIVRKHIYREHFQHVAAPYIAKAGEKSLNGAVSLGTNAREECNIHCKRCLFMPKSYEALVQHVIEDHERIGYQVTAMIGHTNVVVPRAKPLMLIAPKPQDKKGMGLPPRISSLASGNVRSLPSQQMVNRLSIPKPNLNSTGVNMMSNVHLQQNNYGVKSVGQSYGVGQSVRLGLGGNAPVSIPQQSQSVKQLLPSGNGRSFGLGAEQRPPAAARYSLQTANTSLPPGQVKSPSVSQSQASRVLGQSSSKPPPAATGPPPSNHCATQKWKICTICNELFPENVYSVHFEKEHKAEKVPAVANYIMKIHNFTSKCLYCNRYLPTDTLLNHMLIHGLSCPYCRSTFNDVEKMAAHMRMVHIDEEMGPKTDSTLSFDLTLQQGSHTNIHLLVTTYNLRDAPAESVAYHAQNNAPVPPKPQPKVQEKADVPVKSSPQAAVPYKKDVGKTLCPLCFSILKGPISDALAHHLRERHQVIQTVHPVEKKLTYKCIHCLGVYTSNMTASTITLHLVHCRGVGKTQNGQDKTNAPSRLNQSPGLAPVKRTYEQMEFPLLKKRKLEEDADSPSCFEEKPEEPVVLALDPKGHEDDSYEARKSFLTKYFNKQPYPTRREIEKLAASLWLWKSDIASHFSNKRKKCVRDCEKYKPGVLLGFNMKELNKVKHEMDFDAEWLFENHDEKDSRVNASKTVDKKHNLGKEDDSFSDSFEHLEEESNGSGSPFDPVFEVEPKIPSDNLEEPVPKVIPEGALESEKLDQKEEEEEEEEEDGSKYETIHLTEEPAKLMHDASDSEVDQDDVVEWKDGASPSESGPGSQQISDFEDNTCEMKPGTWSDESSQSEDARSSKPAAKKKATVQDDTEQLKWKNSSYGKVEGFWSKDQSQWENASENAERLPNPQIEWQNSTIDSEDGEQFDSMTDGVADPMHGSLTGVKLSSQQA

[3] = target: Brahma-related gene-1 (BRG1, encoded by Smarca4) (mouse (endogenous in Th2 cells)) (UniProt Q3TKT4)

Molecule: Brahma-related gene-1 (BRG1, encoded by Smarca4) (from UniProt Q3TKT4 1-1613)
- binding [1]: binds
- binding [2]: binds

Molecule: CHD4 (from UniProt Q6PDQ2 1-1915)
- binding [2]: binds

B1: activity-dependent neuroprotector homeobox protein (ADNP) (protein, UniProt Q9Z103 1-1108)
chain: T2 sequence
- binding [1]: binds
- binding [3]: binds

The remaining lines, values ahead:

- binding [2]: binds
B2: BATF (protein, UniProt O35284 1-125)
chain: T1 sequence

- binding [1]: binds
B3: JUNB (protein, UniProt P09450 1-344)
chain: MCTKMEQPFYHDDSYAAAGYGRSPGSLSLHDYKLLKPTLALNLADPYRGLKGPGARGPGPEGSGAGSYFSGQGSDTGASLKLASTELERLIVPNSNGVITTTPTPPGQYFYPRGGGSGGGTGGGVTEEQEGFADGFVKALDDLHKMNHVTPPNVSLGASGGPQAGPGGVYAGPEPPPVYTNLSSYSPASAPSGGSGTAVGTGSSYPTATISYLPHAPPFAGGHPAQLGLSRGASAFKEEPQTVPEARSRDATPPVSPINMEDQERIKVERKRLRNRLAATKCRKRKLERIARLEDKVKTLKAENAGLSSAAGLLREQVAQLKQKVMTHVSNGCQLLLGVKGHAF
